Patent US20100325744A1
Results are given in words; binding and its absence hold for the method and conditions named. Some binding calls cover weakened binding; strength is not graded here.

How the values were obtained:
[1] = molecular target: T1, Bet v 1 (birch (as 'Birch pollen antigen Bet v 1')) (UniProt P15494); experiment: summary of the results (radio immuno assay of Example 49)
T1 sequence (125I-labelled (chloramine-T method) where used as tracer, looked up): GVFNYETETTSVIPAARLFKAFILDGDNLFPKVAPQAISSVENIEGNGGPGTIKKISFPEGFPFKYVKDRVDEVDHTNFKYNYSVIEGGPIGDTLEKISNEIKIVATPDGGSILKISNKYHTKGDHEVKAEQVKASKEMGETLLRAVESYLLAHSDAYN

[2] = molecular target: T1, Bet v 1 (birch (as 'Birch pollen antigen Bet v 1')); experiment: radio immuno assay, antibody on Protein G Sepharose, 125I-labelled Bet v 1
[3] = molecular target: T1, Bet v 1 (birch (as 'Birch pollen antigen Bet v 1')); experiment: crosslinking radio immuno assay, Bet v 1 Sepharose and 125I-labelled Bet v 1
[4] = molecular target: T1, Bet v 1 (birch (as 'Birch pollen antigen Bet v 1')); experiment: gel filtration fractions read in radio immuno assay with 125I-labelled Bet v 1 and Protein G Sepharose

Measured: binding

B1: Betv1-HG (antibody, V domains shown)
VH: EVQLQQSGAELVKPGASVKLSCTASGFNIKDTYIHWVKQRPEQGLEWVGRIDPATGNTRYDPKFQGKATITADTSSNTAYLQLSSLTSEDTAVYYCASFRPGYALDYWGQGTSVTVSS
VL: DIVMTQSHKFMSTSVGDRVSFTCKASQDVFTAVAWYQQKPGQSPKLLIYWASTRRTGVPDRFTGSGSGTDYTLTISSVQAEDLALYYCQQHFSTPPTFGGGTKLEIK
binds: [1] | [2] | [3] | [4]

B2: Betv1-IgG1 (antibody, not shown: a dimerising Fc or GST)
heavy: B1 VH
light: B1 VL
binds: [2] | [3]
